Publication PMC12324684
No constants are given. Whether binding was seen depends on the method and setting. In cells and extracts the contact can be indirect. These calls come from enrichment with a bait or labelling near it, and not all partners need be listed. A no says only that the protein was not detected with the bait. Sequences can lack the tags named with a protein.

Sequences of proteins named here, by UniProt entry; tags and fusion partners are left off.
UniProt Q6A070: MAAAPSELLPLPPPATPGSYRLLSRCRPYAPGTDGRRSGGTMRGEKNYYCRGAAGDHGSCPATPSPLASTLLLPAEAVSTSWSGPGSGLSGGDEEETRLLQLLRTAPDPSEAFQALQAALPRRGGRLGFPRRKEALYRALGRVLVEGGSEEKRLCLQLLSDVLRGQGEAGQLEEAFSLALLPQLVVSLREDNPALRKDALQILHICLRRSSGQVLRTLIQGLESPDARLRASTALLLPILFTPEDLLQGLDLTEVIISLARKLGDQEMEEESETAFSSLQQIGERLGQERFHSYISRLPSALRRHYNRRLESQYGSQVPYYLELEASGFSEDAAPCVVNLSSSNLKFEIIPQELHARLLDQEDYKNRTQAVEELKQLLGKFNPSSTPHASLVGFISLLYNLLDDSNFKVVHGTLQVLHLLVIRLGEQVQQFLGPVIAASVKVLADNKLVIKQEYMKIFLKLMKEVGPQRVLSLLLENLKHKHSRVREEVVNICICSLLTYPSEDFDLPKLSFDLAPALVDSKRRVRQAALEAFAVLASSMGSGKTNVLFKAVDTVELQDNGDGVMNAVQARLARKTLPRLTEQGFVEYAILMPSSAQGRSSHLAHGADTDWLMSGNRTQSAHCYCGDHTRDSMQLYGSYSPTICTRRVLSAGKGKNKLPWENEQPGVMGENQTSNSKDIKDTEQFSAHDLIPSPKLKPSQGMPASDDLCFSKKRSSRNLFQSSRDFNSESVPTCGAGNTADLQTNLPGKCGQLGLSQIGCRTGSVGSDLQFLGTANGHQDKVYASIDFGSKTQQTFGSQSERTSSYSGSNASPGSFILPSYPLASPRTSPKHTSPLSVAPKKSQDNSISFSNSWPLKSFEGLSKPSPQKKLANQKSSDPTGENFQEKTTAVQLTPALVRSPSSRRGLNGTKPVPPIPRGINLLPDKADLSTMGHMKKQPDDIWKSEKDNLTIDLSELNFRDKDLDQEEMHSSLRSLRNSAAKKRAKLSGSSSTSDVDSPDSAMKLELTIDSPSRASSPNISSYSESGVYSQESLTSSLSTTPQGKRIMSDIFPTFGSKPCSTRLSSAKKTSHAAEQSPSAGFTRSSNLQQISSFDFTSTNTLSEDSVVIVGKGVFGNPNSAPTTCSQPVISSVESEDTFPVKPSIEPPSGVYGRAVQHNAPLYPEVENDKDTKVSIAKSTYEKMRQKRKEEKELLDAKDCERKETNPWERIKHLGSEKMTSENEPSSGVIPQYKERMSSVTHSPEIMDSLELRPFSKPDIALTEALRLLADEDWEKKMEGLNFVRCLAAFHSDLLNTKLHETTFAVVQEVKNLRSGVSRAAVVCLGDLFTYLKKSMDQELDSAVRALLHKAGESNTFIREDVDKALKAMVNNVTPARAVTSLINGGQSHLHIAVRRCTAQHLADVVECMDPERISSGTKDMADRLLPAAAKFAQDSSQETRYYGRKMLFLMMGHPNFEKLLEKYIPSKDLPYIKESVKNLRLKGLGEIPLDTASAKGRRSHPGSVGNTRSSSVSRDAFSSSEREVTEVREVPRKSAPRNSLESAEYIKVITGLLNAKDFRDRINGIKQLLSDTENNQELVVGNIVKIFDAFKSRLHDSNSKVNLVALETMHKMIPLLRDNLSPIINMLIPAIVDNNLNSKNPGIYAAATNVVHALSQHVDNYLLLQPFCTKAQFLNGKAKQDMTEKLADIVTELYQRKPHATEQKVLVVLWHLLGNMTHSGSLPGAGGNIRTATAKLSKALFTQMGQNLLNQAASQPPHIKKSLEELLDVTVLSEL

T1: Flag-miniTurbo-CCDC66 (UniProt A2RUB6)
T1 sequence: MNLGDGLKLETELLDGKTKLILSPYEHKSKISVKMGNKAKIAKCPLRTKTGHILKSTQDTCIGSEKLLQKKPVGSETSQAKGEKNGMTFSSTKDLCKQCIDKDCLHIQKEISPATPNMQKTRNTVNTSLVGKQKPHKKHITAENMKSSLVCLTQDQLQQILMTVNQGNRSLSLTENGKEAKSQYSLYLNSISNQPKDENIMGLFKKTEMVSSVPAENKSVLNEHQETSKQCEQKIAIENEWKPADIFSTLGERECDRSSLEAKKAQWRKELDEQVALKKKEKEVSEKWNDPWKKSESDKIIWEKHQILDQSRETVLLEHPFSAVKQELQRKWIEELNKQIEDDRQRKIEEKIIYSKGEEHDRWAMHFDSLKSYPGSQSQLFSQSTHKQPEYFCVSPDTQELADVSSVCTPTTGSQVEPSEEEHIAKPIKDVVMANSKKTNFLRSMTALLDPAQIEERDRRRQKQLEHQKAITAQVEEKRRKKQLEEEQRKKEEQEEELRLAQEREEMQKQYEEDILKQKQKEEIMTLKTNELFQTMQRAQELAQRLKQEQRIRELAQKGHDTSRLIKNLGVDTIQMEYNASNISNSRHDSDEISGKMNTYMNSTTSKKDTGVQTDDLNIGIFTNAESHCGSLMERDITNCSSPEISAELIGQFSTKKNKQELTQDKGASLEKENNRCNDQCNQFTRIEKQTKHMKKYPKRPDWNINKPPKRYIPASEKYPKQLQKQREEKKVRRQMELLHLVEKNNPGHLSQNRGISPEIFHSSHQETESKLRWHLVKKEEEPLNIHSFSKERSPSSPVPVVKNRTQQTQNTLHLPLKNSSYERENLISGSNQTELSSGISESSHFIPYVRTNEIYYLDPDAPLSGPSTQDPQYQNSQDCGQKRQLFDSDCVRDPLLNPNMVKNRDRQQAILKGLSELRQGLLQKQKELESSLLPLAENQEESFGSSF


Molecular target: T1, Flag-miniTurbo-CCDC66
Assay: proximity labelling; IMCD3 cells stably expressing Flag-miniTurbo-CCDC66 (control Flag-miniTurbo), serum starved 48 h, serum stimulated 1 h or 6 h, 500 uM biotin for the last 30 min; RIPA lysis, streptavidin-agarose pull-down, mass spectrometry, NSAF analysis

| binding | Molecule |
| --- | --- |
| binds | RAB5 (mouse (endogenous in IMCD3)) |
| no binding | RAB7 (mouse (endogenous in IMCD3)) |
| binds | TOGARAM1 (from UniProt Q6A070 1-1776) |
| binds | ARMC9 (protein, UniProt Q9D2I5 1-817) MGDILAHESELLGLVKEYLDFAEFEDTLKTFSKECKVKGKPLCKNVGGPLKKDSKSLVIQRDLVAAFDSGDQKAFFDLWEGHIPSSVRDTDSLAQKLEFYLHIHFAIYLLKYCRGRPDKQELDKRISYFKTYLETKGAALSQTTEFLPFYALPFVPNPMVHPSFKELFQDSWTPELKLKLEKFLALTFKANNTPKLLTIYKENGPNSKELLQQLHQQLVEAERRAMTYLKRYNKIQADYHNLIGVTAELVDSLEATVSGKMITPEYLQSVCVRLFSNQMRQSLAHSVDFTRPGTASTMLRASLAPEKLKDVPLLPSLDYEKLKKDLIWGSDRLKAFLLQALRWRLTTSHPGEQRETVLQAYISNDLLDCHSHNQRSVLQLLHSKSEAVRQYMARLINALASLAEGRLYLAQNTKVLRMLEGRLKEEDKDVITRENVLGALQKFSLRRPLQTAMIRDGLIFWLIDLLKDPDCLSDYTLEYSVALLMNLCLRSAGKNMCAKVAGLMLKVLSDLLGHENHEIQPYVNGALYSILSIPSIREEARAMGMEDILRCFIKEGNAEMIRQIEFIIKQLNSEDLLDGVLESDDDEDEDDEEDHDIMEADLDKDELIQPQLGELSGEKLLTTEYLGIMTNTGKARRKGPASVQWSGDEPLRRPVTPGGHRTGCPVLGDHLISPQNAQQARNGCLRAMPVAHPDDYKEGKPGVTGCGTSSSFMDHKPREWSPAGHQKSRLVPTAALGWPREMTQDPSSGHITREFVPAFTCKPQVPSTPETVEQNPLKAKALSLAPQFSSSGPQQASRPASTASSTRGLHSSQSIRK |
| binds | CEP104 (protein, UniProt Q80V31 1-926) MPHKIGFVVVSSSGHEDGFSARELMIHAPTVSGWRSPKFCQFPQEIVLQMVERCRVRKLQLLAHQYMISSKVEFYISESLPEYLVPYQAERFRRLGYVSLCDNEKTGCKARELKSVYVDAVGQFLKLIFHQNHANKYNIYNQVALVAINIIGDPADLGDESNITSREKLIDHYLGHSPHNPEDPALDGTFSGRSDYISPLDDLAFDMYQDPEVAQIIRRLDERKREAVKKERYDHAKKLKQAIADLQKVGERLGRYEVEKRCAVEKEDYDLAKEKKQQMARYRAQVYEQLELHGLLQGEPEMQRPFALPLQPLASPSSPQHWKAVSSLPRTEKLVAEDSFAGPVLQEKPSASSPQHSAVDPSPPAAGHAPRSHTEVLPYDERPLPVTRKQLGEASAEAEVKEADSDVRRRGVAGEPEPLTEKALREASAAIDTLGEALVAGAYSKMWSCREDALLALYKKLMEMPVGTQKEDLKNMLRASVFLIRRAIKDIVASVFQASLKLLKMIITQYIPKHKLGKLDTTHCVERAFPLLLARAGDSSARLRVMALNFIQEMALFKEVKSLQLIPSYLVQPLKANASVHLAMSQVDLLARLLRDLGTESSGFTVDNVMKFAVSALEHRVYEVRETAVRIILDMYRQHPALTLEHLPPDDSATRRNLLYKAIFEGFAKIDGSVLPTEAEVRAQKRVATKEAEKQKKEEMKALQGQSGELRETQAGVQEKESEAVKLRNQDPQGRKAVLPDTPEIPANHFLDNLCIFCGERNESFTEEGLDLHYWKHCLMLTRCDHCRQVVEISSLTEHLLTECDRRDGFGKCPRCSEAIPKEELPGHIKTKECSPAKPEKVANHCPLCHENFAPGEEAWKVHLMGPAGCTMNLRKTHVLYKATAPQQGKGPAAAKSSTSAPKVGSKIPTPKGGLSKSSSRTYMRR |
| binds | CSPP1 (protein, UniProt B2RX88 1-1205) MADSLDEFIEEQKAKLAKDKAELESDPPYMEMKGKASEKLSENSKILISMAKENIPPSSQQQPKGPLGIEYGLSLPLGEDYEQKKHKLKEELRQDYRRYLTQGITQAKRKKNFLSTGETDPSTLGVSLPIDERLSAKERLKLERNREYNQFLRGKAESTEKVRQVEKNIEPKSQRNKNPISQGKSDLPLQIQTAYTHSEGPWLSRQEEGLYRQLDGEIELRSRRPLKQTKEEVGISGAEHPSLSGSAGVPERRARRANGERVLDRQHCRADRDPGVSEDMDERFRFESDFDRRLLRVYTNGRPHGSRRGYVDGDDVPEEPNTQISAAENKSVHCNGPPRSADLDITSPFAGMLFGGEDRELTKRRKEKYRQELLEQIAEQQKKKRREKDLAFGITTSGVQDPEKSPDRLKQFSLTPRHFEEMPPERPRVAFQTPPPPFSAPSSPSVPPVHSAPSHNEDLHSGLGSTLGELAHPRVLPVPLNPPPPPLLAPPASNYRTPYDDAYYFYGARNTLDPNIVYYGSGMIGGQPAPHVSAPVTHQVAPPAVNTVGQNEQKVLSDGLRNSGLVFEDKPKPSTQSLQSYQEALQEQIREREARRKKERLEKEEYEAKLEAEMRIYNPWGKGGGGAPLRDAKGNLITDLNRMHRQNIDAYHNPDARTYEDKRAVVSIDQNLATSNAENLEDSANKNSGPLQTQSSPFARGNTFGEPLSELQIKQQELYKNFLRFQIEEKRQREEAEREKLRVAEEKEEKRLAEQRARIQQEYEEEQERRREKEEEQRLKNEELIRLAEERRKEAERKKKEEEEKHNLQLQHYYERENIIGDETKHLRQPSPVVPALQNKIASKLQRPPSVDTIISSFIHESSMSRAQSPPVPARKNQLRAEEEKKNVIMELSEMRKQLRSEERRLQGRLLHLDSDDEIPMRKRERNPMDIFDMARHRVQAPVRRPSPKGLDATTFQNIHDFNELRERDSDTRVDLRLMYPDPPRDHHTLEIQQQALLREQQKRLNRIKMRRDAGADLDTICTDNAQGRRMPRDDTNDFLKNSLLESDSAFIGAYGETYPVIEDNAFPPPSQLPSARERRRNKLKGLDFDSSRLHTPQDGLSLKSISSVNVDQVRMRNEDRMRRLTEQQKKPTNTDDEGSLVDPDDIMRHLSDDGRNSAATEPWLRPGTSESLKRFMAEHLNEEQHKGPGKPGTFTWQGLSAAHA |
